Laboratory results as given in paper PMC5550436.
Results are given in words; binding and its absence hold for the method and conditions named. Binding seen in cells or lysates may run through a third protein. Here binding means that the protein was enriched with, or labelled near, the bait; the list need not be complete. Sequences can lack the tags named with a protein.

Biological target: T1, MBP-tagged enzymatically inactive CCP2 mutant (H425S and E428Q) (mouse) (UniProt Q8CDK2)
T1 sequence: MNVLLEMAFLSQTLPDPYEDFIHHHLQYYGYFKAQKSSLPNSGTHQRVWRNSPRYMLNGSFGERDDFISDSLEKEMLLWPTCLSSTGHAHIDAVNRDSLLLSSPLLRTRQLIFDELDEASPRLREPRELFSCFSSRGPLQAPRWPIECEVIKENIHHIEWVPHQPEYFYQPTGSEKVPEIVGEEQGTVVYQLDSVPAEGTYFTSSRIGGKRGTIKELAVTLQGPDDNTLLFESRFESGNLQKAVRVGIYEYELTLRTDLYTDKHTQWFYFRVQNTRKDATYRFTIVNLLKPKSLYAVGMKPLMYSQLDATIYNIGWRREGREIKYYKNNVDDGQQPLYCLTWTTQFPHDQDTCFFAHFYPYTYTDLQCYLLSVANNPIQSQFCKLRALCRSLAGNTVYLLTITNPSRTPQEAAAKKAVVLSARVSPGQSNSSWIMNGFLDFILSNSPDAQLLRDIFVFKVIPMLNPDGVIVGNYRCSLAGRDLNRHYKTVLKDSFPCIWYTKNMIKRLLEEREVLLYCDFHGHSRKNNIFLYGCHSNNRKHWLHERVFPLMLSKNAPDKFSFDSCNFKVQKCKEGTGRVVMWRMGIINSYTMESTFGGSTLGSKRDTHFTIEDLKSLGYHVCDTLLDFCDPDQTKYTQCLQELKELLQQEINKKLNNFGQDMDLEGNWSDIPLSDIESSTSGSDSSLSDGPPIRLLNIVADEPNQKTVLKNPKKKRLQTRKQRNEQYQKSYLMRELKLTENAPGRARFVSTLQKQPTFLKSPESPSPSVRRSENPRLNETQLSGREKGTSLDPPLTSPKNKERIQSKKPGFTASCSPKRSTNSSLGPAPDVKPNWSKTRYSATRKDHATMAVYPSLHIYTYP
Assay: affinity purification with mass spectrometry; recombinant CCP2-wt and CCP2-mut immobilised on Affi-gel10 resin, BM lysates passed over (Ccp2-/- BM lysates by the legend); eluate on SDS-PAGE, silver staining; ~60 kD band cut, LC-LTQ MS/MS; only the target purified

- binding: binds
B1: native IL-7Rα from mouse bone marrow lysates (receptor, UniProt P16872 21-459)
chain: ESGNAQDGDLEDADADDHSFWCHSQLEVDGSQHLLTCAFNDSDINTANLEFQICGALLRVKCLTLNKLQDIYFIKTSEFLLIGSSNICVKLGQKNLTCKNMAINTIVKAEAPSDLKVVYRKEANDFLVTFNAPHLKKKYLKKVKHDVAYRPARGESNWTHVSLFHTRTTIPQRKLRPKAMYEIKVRSIPHNDYFKGFWSEWSPSSTFETPEPKNQGGWDPVLPSVTILSLFSVFLLVILAHVLWKKRIKPVVWPSLPDHKKTLEQLCKKPKTSLNVSFNPESFLDCQIHEVKGVEARDEVESFLPNDLPAQPEELETQGHRAAVHSANRSPETSVSPPETVRRESPLRCLARNLSTCNAPPLLSSRSPDYRDGDRNRPPVYQDLLPNSGNTNVPVPVPQPLPFQSGILIPVSQRQPISTSSVLNQEEAYVTMSSFYQNK
